Results: PubChem BioAssay AID1508600 (Functional Genomics Laboratory (NCATS/FGL), 2020)
Among all 53,000 sequences or so, about 3,700 (7%) were called active.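 How the source made its calls: active means gene knockdowns whose robust z-score for IL-1 alpha signal is at least 2 or at most -2, so actives lie on both sides; inactive means the rest.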 The list shows a part of the results.

Experiment: Components of the Cytosolic LPS Sensing Pathway: Gene Identification via Genome-wide siRNA Screen;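 further: robust z of the log signal after scaling to non-targeting control siRNA wells of the plate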
Conditions: RAW264.7 macrophages, IL-1a HTRF, actives lie on both sides, screened at 100 nM (by protocol), cells primed 5 h with Pam3CSK4 first
Procedure, shortened: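 Knockdown: 100 nM siRNA, 48h, RAW264.7. Stimulation: Pam3CSK4 5 h, then LipidA via TransIT-TKO 24 h. Output: supernatant IL-1a HTRF, negative-control-normalized, log robust z-score; viability by CellTiter-Glo.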

z-score, inactive:
GGAGGUCACCUUCUCAAACTT against Mrgprf 0.374
GCUACAUGGGCCUCACAUATT against Spaca4 -0.199
GCUGUCACGAGGAAUCAUGTT against Scarf2 -0.368
GGCUACCACAUCUGAUAACTT against Serpind1 0.314
CCAAGAAAUUGCACUGGGATT against A130050O07Rik 0.781
GGAAUGUACCCAUAAAAGUTT against Nudt19 0.988
GGCUCUGUGCAGACAUUUCTT against Pop5 -1.51
GGUGCAAGGAAAAACAAAATT against Ggh -1.89
GGAGCCACAUGAAACACUATT against Reep6 -1.09
GGCCAGAAAUGUACAUACATT against Map4k5 -0.297
UAUCCACUUUACCUUUGUATT against Zscan26 1.29
GGCCAAGAAGGAAAGGGAUTT against Atp1a1 0.106
CCUAGAUUCGGACAAGGAUTT against Kctd5 -0.424
GGGAUGUAUUAGUGAAAGGTT against Dmpk 0.368
GCCGUAUGAAUCCUACACATT against Vps26b 0.201
GGCUCUUGCCAGAAUUAACTT against Emc6 0.289
CGAGUACGCUCUGCUAUUCTT against Ptgds 0.265
GGCAGUCUUCUAGUAAGAATT against Cbr4 -0.502
GGUUACGUCUACGACUGGATT against Scml2 -1.18
GCUGCCAAAAGAUCUCGGGTT against Nfil3 0.24
GCUGUUUCGGAUUUGGAGATT against Mpc2 -0.579
GCUAAGGACUGAGGUGCUUTT against Sf3b6 -1.7
CGAUGUAUUGUUAUUGCCATT against Lrp10 0.598
GGCAGAGACACAAGUCACUTT against Adam3 -0.156
GGUAAAAAGUUUUGGGAAATT against Pum1 -0.0523
GGGUCGUUGGCAUCAUCAATT against Rps6kl1 -0.362
GGUUUUCACUGUGAAUUUGTT against Plscr1 1.17
GCUGUACGAGCCCUGAUGATT against Cldn18 -0.62
GGAAAGUAUGUCCAUUCUATT against Tnfrsf1a 0.429

Two entries picked at random from the list so far, as already listed:
z-score, inactive:
GGCUCUUGCCAGAAUUAACTT against Emc6 0.289
GGUGCAAGGAAAAACAAAATT against Ggh -1.89
